Results from the supplement of paper PMC12873370.
Values joined by “and” are separate entries in the source; they are usually repeats but may differ in a detail not shown here. Identical values can stand only once. The list shows a part of the results. Single values are uncertain, as repeats are few or missing.

Legend:
[1] = test system: MEPP (mouse ovarian epithelium Trp53/Pten KO); assay: cell viability relative to untreated (fraction); higher = less growth inhibition; settings: 5 µM; 3 days
[2] = test system: PREPP (mouse prostate epithelium Trp53/Pten KO); assay: as above; settings: 5 µM; 3 days

Compound | cell viability [1] | cell viability [2]
O=C(O)[C@H]1C[C@@H](O)CN1 | 0.863 | 1.17
CC[C@H](C)C(=O)O[C@H]1CCC=C2C=C[C@H](C)[C@H](CC[C@@H]3C[C@@H](O)CC(=O)O3)[C@H]21 | 1.03 | 0.672
CC(C)C[C@H](NP(=O)(O)O[C@@H]1O[C@@H](C)[C@H](O)[C@@H](O)[C@H]1O)C(=O)N[C@@H](Cc1c[nH]c2ccccc12)C(=O)O | 0.907 | 1.08
O[C@H]1[C@H](O)[C@@H](O)[C@H](O)[C@@H](O)[C@@H]1O | 0.968 | 0.92
C[C@H](O)[C@H](O)c1cnc2nc(N)[nH]c(=O)c2n1 | 1 | 0.866
O=C(O)c1cc(=O)c2ccccc2[nH]1 | 0.93 | 0.974
Cc1ncc(C[n+]2csc(CCO)c2C)c(N)n1 | 1.05 and 1.27 and 1.06 | 0.984 and 1.08 and 0.94
Cc1cnc(C(=O)O)c[n+]1[O-] | 1.03 | 0.88
OC[C@@H](O)[C@@H](O)[C@H](O)[C@@H](O)CO | 1 | 0.954
Cc1ccc2oc(=O)ccc2c1 | 0.888 | 1.03
C[C@H]1[C@@H](O)O[C@@H]2O[C@@]3(C)CC[C@H]4[C@H](C)CC[C@@H]1[C@@]24OO3 | 0.899 | 0.839
O=C(O)c1cc(O)c(O)c(O)c1 | 1.04 | 1.08
COc1cc2ccc(=O)oc2c(O)c1O | 1 | 1.31
OC[C@H]1NC[C@H](O)[C@@H](O)[C@@H]1O | 1.45 | 0.925
O=C(O)c1ccc(C(=O)O)cc1 | 0.991 | 0.994
C[C@H](O)c1ccccc1 | 0.888 | 1.17
C[C@@H]1C(=O)O[C@H]2C[C@@]34[C@H]5C[C@@H](C(C)(C)C)[C@]36[C@@H](OC(=O)[C@@H]6O)O[C@@]4(C(=O)O5)[C@]21O | 1.22 | 1.07
Cc1cn([C@@H]2C[C@@H](O)[C@H](CO)O2)c(=O)[nH]c1=O | 1.07 | 1.02
O=C1C[C@@H]2[C@@H](CO)[C@H](O)C[C@@H]2O1 | 0.912 | 0.914
COc1c(O)cc2c(c1O)[C@@H]1O[C@H](CO)[C@@H](O)[C@H](O)[C@H]1OC2=O | 1.2 | 0.946

Compound | cell viability [1] | cell viability [2]
CC(C)(OCc1nn(Cc2ccccc2)c2ccccc12)C(=O)O | 0.738 | 0.843
Nc1cc[nH]c(=O)n1 | 1.44 | 0.91
CN1C(C(=O)Nc2ccccn2)=C(O)c2sc(Cl)cc2S1(=O)=O | 0.94 | 0.95
C[N+](C)(C)C[C@H](O)CC(=O)[O-] | 0.931 | 0.678
Cc1c(C(=O)NCCO)[n+]([O-])c2ccccc2[n+]1[O-] | 0.956 | 1.04
CC(C)=CCC[C@](C)(O[C@@H]1O[C@H](CO)[C@@H](O)[C@H](O)[C@H]1O)[C@H]1CC[C@]2(C)[C@@H]1[C@H](O)C[C@@H]1[C@@]3(C)CC[C@H](O)C(C)(C)[C@@H]3[C@@H](O[C@@H]3O[C@H](CO)[C@@H](O)[C@H](O)[C@H]3O[C@@H]3OC[C@@H](O)[C@H](O)[C@H]3O)C[C@]12C | 1.07 | 1.03
NC(=O)CC[C@H](N)C(=O)O | 1.1 | 0.894
NCCCCN | 0.85 and 1.48 | 1.05 and 1.09
O=Cc1ccc(O)c(O)c1 | 0.858 | 0.821
O=C(O)[C@@H]1CCCN1 | 0.943 | 1.05
O=Cc1cccc(O)c1 | 1.45 | 0.971
C[C@@H]1O[C@@H](O[C@H]2[C@H](Oc3cc(O)c4c(c3)O[C@H](c3ccc(O)cc3)CC4=O)O[C@H](CO)[C@@H](O)[C@@H]2O)[C@H](O)[C@H](O)[C@H]1O | 1.12 | 0.819
O=c1[nH]cnc2c1ncn2[C@H]1C[C@H](O)[C@@H](CO)O1 | 0.966 | 0.937
Oc1ccc([C@H]2COc3cc(O)ccc3C2)cc1 | 1.34 | 1.02
CC(CC(=O)O)CC(=O)O | 1.22 | 0.98
OC[C@@H](O)[C@@H](O)[C@@H](O)CO | 0.825 | 0.963
C[Si](C)(C)CCOCn1ccc2c(-c3cn[nH]c3)ncnc21 | 0.919 | 0.937
C[C@H](CCC(=O)O)[C@H]1CC[C@H]2[C@@H]3[C@H](O)C[C@@H]4C[C@H](O)CC[C@]4(C)[C@H]3CC[C@]12C | 1.18 | 0.922
CC(C)(CO)C(O)C(=O)NCCCO (stereo not drawn) | 0.89 | 1.07
